# The supplement of paper PMC11732987, “Enantioselective OTUD7B fragment discovery through chemoproteomics screening and high-throughput optimisation” (Communications Chemistry, 2025)
# Protein sequences, listed by entry. Tags and fused reporters are not part of them. Lines headed by an entry give the natural chain unless they say otherwise; changes in a name come on top. Residues count along the entry.
# UniProt Q9UDY4: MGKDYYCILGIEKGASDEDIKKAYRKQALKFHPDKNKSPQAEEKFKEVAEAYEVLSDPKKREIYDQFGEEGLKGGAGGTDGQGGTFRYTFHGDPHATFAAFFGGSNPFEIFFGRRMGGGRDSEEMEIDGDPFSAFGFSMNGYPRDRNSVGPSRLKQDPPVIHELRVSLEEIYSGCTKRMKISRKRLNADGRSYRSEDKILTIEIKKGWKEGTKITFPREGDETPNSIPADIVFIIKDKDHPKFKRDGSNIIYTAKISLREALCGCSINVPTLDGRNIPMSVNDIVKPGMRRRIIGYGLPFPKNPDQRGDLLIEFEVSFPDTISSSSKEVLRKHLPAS
# UniProt O60231: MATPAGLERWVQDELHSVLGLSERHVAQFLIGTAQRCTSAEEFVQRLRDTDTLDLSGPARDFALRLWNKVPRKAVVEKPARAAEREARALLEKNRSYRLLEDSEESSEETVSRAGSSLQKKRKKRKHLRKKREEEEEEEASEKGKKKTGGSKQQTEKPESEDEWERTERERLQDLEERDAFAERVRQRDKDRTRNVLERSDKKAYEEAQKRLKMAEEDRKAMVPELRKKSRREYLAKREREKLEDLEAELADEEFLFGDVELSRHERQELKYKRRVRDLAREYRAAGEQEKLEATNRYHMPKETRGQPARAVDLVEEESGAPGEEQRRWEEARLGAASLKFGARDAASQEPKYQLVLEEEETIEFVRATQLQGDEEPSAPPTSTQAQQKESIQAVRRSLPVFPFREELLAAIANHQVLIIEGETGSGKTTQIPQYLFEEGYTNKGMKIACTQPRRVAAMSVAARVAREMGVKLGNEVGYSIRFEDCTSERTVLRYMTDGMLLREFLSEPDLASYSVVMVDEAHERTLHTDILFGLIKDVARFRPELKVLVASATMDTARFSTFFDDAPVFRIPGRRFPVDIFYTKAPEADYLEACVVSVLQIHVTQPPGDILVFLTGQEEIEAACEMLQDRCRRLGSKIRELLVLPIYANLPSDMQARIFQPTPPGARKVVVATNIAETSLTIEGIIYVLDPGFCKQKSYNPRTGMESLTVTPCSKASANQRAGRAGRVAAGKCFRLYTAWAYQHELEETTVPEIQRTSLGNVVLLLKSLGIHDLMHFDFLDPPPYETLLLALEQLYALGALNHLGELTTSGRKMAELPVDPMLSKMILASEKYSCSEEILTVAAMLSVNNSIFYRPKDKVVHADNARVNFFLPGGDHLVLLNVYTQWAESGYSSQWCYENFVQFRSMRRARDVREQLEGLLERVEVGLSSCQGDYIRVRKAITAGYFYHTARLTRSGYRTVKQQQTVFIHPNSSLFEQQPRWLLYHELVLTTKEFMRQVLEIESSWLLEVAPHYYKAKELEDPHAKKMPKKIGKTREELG
# UniProt Q7L2E3: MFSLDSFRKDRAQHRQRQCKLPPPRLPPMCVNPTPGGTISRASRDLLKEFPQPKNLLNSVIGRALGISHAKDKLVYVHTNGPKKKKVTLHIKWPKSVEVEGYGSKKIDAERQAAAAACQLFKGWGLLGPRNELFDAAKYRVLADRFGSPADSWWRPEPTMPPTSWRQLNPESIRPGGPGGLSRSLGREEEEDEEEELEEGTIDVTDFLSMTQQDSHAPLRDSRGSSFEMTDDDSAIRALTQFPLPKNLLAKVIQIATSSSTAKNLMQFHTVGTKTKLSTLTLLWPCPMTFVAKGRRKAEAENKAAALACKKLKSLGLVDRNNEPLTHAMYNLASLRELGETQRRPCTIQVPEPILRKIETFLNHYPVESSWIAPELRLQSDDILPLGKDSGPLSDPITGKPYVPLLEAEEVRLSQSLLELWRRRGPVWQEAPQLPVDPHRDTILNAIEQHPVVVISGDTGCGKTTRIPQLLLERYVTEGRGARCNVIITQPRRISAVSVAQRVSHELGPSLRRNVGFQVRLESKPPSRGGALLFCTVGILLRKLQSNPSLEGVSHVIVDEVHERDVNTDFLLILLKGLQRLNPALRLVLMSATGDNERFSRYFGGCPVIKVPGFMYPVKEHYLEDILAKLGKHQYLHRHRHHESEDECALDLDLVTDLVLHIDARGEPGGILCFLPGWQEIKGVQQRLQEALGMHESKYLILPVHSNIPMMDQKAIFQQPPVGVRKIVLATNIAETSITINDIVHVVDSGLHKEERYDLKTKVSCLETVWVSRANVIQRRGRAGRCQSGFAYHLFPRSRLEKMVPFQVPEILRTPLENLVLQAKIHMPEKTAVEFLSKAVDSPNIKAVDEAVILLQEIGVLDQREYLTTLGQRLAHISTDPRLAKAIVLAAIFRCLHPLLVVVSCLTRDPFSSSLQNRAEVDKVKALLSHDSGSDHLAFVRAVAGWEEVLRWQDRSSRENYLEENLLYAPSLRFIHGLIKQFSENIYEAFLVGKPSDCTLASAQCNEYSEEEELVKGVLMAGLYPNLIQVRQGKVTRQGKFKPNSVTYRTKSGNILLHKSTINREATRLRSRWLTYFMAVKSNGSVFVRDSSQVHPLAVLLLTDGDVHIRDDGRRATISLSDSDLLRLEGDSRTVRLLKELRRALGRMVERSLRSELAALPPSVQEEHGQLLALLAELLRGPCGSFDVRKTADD
# UniProt Q5QJE6, 473-501: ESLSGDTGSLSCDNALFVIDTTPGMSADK
# UniProt Q15392: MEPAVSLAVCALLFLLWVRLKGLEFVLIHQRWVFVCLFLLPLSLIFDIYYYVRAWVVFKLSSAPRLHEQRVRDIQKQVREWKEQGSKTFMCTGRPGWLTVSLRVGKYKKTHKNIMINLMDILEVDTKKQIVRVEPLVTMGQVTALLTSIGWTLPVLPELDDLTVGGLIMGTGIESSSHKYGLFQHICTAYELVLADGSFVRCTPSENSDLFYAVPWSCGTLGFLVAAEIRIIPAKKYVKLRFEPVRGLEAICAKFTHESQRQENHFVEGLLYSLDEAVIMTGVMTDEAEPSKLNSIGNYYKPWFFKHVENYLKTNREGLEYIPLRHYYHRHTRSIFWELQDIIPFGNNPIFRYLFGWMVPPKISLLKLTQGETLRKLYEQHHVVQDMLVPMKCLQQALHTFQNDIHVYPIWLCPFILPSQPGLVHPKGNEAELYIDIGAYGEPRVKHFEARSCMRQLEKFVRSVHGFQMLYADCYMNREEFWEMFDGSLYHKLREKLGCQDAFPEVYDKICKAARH
# UniProt Q99615: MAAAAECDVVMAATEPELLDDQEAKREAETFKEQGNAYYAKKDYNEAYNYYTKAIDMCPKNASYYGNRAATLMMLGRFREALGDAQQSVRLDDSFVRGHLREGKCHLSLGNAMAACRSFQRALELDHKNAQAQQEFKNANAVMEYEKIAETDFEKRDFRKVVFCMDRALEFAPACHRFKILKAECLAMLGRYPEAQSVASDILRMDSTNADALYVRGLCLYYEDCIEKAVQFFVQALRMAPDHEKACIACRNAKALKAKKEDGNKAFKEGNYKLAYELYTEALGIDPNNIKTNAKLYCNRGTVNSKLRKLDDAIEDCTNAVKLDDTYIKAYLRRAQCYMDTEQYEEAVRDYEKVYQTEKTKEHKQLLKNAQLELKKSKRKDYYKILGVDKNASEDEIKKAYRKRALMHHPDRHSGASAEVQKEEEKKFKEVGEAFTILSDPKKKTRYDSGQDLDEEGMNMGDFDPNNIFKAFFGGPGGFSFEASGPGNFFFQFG
# UniProt P52824: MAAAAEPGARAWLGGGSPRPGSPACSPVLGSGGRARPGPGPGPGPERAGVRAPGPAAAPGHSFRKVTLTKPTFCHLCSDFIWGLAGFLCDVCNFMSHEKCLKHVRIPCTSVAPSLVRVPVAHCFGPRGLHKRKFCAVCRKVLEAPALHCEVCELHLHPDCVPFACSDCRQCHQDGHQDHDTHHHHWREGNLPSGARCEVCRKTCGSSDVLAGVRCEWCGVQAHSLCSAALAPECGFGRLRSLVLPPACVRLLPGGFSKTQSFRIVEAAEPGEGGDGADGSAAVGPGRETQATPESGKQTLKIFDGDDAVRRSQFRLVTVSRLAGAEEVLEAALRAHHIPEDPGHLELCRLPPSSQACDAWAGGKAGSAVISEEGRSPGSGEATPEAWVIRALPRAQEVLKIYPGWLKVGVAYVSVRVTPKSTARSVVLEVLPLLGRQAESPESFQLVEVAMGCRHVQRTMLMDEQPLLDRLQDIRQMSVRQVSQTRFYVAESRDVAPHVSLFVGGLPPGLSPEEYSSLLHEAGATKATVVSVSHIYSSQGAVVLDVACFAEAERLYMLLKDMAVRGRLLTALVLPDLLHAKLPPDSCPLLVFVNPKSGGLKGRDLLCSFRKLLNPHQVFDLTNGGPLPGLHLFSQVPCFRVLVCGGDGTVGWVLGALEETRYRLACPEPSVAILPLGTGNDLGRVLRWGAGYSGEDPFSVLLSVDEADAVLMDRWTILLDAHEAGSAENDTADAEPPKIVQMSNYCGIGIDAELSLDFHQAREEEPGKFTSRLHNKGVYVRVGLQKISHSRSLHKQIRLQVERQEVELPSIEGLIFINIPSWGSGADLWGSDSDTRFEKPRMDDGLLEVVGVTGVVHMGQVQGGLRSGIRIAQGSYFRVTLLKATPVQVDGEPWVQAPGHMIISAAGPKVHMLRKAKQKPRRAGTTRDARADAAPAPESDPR
# UniProt O60879: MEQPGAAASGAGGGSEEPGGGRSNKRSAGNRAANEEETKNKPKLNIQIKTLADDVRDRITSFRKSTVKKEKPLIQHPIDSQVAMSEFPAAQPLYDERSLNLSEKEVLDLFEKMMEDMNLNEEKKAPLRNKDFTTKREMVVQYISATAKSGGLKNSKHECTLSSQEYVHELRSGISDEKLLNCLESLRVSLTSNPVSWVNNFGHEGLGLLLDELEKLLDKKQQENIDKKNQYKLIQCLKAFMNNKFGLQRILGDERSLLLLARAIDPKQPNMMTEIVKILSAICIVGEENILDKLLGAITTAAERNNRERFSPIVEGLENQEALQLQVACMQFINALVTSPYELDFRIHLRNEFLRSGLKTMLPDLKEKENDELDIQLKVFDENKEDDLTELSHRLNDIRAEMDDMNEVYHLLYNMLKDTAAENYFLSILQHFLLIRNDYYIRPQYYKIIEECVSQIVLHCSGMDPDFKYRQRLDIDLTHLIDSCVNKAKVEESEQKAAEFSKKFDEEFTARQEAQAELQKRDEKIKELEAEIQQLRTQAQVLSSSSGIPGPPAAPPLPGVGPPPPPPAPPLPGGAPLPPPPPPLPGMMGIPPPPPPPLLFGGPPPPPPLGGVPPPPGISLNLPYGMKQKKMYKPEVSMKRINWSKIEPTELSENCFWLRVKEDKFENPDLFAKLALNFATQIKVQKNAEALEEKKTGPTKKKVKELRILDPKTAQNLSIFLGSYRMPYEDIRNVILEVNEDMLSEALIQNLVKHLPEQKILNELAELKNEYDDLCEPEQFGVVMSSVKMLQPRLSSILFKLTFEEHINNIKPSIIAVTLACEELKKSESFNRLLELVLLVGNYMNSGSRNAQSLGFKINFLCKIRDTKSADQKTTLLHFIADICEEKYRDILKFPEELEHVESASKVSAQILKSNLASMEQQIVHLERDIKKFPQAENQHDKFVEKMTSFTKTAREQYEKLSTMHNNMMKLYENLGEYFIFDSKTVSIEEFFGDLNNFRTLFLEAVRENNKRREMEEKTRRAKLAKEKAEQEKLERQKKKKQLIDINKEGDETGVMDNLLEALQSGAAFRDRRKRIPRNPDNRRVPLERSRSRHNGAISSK
# UniProt Q9H6R0: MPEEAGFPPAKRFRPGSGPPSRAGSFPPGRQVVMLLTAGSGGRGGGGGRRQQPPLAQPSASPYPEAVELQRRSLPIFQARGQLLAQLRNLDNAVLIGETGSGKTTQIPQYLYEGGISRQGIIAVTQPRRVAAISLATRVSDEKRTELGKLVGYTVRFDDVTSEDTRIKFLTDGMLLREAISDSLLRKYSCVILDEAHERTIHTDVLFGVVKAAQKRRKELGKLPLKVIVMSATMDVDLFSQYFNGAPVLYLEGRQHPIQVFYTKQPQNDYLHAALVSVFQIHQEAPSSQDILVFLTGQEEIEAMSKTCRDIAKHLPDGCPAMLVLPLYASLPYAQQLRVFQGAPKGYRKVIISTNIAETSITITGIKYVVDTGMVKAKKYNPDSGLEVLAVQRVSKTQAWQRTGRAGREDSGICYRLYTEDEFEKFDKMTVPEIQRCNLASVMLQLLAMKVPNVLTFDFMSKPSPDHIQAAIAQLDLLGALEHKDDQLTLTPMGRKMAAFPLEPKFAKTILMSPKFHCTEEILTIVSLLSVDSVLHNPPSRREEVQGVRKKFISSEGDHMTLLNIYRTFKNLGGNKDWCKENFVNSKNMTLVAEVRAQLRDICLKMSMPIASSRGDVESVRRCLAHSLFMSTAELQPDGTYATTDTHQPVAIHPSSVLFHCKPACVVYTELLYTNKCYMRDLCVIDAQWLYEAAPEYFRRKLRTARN
# UniProt Q12959, 371-392: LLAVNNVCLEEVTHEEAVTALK
# The other results are listed elsewhere or left out. The data scatter; read single values as rough.
# Compound: ClCC(=O)N[C@@H]1CCCc2ccccc12
# Experiment: log2 mean competition ratio of IA-DTB cysteine labelling (DMSO/compound) (log2 ratio); higher = stronger cysteine engagement by compound
# Conditions: treatment time: 4 h, cell line lysate: HEK293T
# Description: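 IA-DTB competitive cysteine chemoproteomics in HEK293T RIPA lysate. Lysates were treated with compound 29 or 30 at 50 or 200 µM for 4 h, then IA-DTB (500 µM, 1 h), trypsin-digested, NeutrAvidin-enriched and analysed by diaPASEF. Competition ratio = intensity DMSO / intensity compound (n=4 treated, n=64 DMSO); binding: mean log2 CR ≥ 1 and p ≤ 0.05 plus QC filters. Target is the cysteine site.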
target,measurement,setting,value
DOCK11 C903,log2 mean competition ratio,50 µM,-0.0114
same,log2 mean competition ratio,200 µM,-0.0531
DNAJB4 C175 (UniProt Q9UDY4),log2 mean competition ratio,50 µM,-0.383
same,log2 mean competition ratio,200 µM,-0.115
DENND4C C1903 (UniProt Q5VZ89),log2 mean competition ratio,50 µM,0.48
same,log2 mean competition ratio,200 µM,-0.169
DENND4C C763 (UniProt Q5VZ89),log2 mean competition ratio,50 µM,0.165
same,log2 mean competition ratio,200 µM,-0.138
DHX16 C37 (UniProt O60231),log2 mean competition ratio,50 µM,-0.04
same,log2 mean competition ratio,200 µM,0.0863
DENND4A C1698 (UniProt Q7Z401),log2 mean competition ratio,50 µM,0.315
same,log2 mean competition ratio,200 µM,-0.0858
DHX30 C484 (UniProt Q7L2E3),log2 mean competition ratio,50 µM,0.0042
same,log2 mean competition ratio,200 µM,-0.0394
DNTTIP2 C484 (UniProt Q5QJE6),log2 mean competition ratio,50 µM,-0.07
same,log2 mean competition ratio,200 µM,0.227
DHCR24 C499 (UniProt Q15392),log2 mean competition ratio,50 µM,0.277
same,log2 mean competition ratio,200 µM,0.309
DNAJC7 C175 (UniProt Q99615),log2 mean competition ratio,50 µM,0.4
same,log2 mean competition ratio,200 µM,0.447
DGKQ C607 (UniProt P52824),log2 mean competition ratio,50 µM,-0.0058
same,log2 mean competition ratio,200 µM,0.0712
DIAPH2 C484 (UniProt O60879),log2 mean competition ratio,50 µM,-0.156
same,log2 mean competition ratio,200 µM,0.305
DHX40 C242 (UniProt Q8IX18),log2 mean competition ratio,50 µM,0.0491
same,log2 mean competition ratio,200 µM,0.0742
DNMT1 C1485 (UniProt P26358),log2 mean competition ratio,50 µM,-0.146
same,log2 mean competition ratio,200 µM,0.104
DHX33 C414 (UniProt Q9H6R0),log2 mean competition ratio,50 µM,-0.173
same,log2 mean competition ratio,200 µM,-0.147
DFFA C21 (UniProt O00273),log2 mean competition ratio,50 µM,0.0994
same,log2 mean competition ratio,200 µM,-0.506
DOCK1 C595 (UniProt Q14185),log2 mean competition ratio,50 µM,0.208
same,log2 mean competition ratio,200 µM,0.00861
DLG1 C378 (UniProt Q12959),log2 mean competition ratio,50 µM,0.306
same,log2 mean competition ratio,200 µM,0.48
DHX40 C470 (UniProt Q8IX18),log2 mean competition ratio,50 µM,0.0299
same,log2 mean competition ratio,200 µM,0.0567
DNMT1 C1191 (UniProt P26358),log2 mean competition ratio,50 µM,-0.442
same,log2 mean competition ratio,200 µM,-0.18
DHX29 C659 (UniProt Q7Z478),log2 mean competition ratio,50 µM,0.515
same,log2 mean competition ratio,200 µM,0.0505
DHX9 C415 (UniProt Q08211),log2 mean competition ratio,50 µM,-0.246
same,log2 mean competition ratio,200 µM,0.137

# Reprinted at random: two entries already listed, in no set order.
target,measurement,setting,value
DENND4A C1698 (UniProt Q7Z401),log2 mean competition ratio,50 µM,0.315
DHCR24 C499 (UniProt Q15392),log2 mean competition ratio,200 µM,0.309
